According to publication PMC3169561, “Restoration of IFNγR Subunit Assembly, IFNγ Signaling and Parasite Clearance in Leishmania donovani Infected Macrophages: Role of Membrane Cholesterol” (PLoS Pathogens, 2011):
No constants are given. Whether binding was seen depends on the method and setting. For some assays here: In cells and extracts the contact can be indirect. Some binding calls cover weakened binding; strength is not graded here.

By UniProt entry, the sequences of proteins in these tests, tags left out.
UniProt Q62120: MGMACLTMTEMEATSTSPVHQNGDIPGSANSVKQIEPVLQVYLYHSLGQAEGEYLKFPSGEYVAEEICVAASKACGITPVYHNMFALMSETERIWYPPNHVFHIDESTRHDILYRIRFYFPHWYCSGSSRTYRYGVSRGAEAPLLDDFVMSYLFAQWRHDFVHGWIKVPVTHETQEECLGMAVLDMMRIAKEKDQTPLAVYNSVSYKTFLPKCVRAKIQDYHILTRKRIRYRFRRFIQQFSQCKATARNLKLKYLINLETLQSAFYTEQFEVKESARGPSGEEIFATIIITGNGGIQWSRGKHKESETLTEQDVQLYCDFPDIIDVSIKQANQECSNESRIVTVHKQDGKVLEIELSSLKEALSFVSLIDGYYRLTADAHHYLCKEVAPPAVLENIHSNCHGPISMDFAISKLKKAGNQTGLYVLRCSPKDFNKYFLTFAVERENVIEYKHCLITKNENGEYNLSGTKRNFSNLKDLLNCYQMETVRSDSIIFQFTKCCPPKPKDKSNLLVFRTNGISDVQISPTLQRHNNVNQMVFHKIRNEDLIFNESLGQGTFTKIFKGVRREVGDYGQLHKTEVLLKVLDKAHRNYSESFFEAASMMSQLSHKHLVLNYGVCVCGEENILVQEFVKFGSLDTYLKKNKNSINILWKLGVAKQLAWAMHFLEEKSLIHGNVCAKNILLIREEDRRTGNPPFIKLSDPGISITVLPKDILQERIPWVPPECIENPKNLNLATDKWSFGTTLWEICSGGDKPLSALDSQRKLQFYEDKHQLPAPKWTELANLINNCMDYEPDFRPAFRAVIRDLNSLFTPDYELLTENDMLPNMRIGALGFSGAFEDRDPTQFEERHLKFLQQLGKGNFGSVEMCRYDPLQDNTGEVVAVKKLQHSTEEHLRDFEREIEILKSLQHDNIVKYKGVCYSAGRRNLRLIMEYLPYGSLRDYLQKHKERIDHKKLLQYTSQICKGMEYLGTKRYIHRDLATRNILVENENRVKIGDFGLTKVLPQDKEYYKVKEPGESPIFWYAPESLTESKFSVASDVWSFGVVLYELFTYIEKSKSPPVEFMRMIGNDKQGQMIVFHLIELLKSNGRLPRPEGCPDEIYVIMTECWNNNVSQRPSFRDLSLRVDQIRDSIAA
UniProt P29351: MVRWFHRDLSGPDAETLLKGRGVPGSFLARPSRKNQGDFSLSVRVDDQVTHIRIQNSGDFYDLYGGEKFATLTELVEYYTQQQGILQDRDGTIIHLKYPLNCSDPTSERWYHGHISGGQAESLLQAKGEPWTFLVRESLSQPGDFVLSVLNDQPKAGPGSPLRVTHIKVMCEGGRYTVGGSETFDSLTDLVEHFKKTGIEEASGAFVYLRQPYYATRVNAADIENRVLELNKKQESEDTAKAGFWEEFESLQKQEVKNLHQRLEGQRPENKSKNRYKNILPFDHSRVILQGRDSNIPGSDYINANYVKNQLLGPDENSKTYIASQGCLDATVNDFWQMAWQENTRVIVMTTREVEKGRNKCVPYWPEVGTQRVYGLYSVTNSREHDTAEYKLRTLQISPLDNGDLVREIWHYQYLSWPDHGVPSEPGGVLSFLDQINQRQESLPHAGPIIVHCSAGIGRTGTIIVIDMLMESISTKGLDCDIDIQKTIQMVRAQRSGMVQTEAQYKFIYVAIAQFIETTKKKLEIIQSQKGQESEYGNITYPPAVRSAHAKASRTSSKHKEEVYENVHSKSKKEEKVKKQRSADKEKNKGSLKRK
UniProt P52332: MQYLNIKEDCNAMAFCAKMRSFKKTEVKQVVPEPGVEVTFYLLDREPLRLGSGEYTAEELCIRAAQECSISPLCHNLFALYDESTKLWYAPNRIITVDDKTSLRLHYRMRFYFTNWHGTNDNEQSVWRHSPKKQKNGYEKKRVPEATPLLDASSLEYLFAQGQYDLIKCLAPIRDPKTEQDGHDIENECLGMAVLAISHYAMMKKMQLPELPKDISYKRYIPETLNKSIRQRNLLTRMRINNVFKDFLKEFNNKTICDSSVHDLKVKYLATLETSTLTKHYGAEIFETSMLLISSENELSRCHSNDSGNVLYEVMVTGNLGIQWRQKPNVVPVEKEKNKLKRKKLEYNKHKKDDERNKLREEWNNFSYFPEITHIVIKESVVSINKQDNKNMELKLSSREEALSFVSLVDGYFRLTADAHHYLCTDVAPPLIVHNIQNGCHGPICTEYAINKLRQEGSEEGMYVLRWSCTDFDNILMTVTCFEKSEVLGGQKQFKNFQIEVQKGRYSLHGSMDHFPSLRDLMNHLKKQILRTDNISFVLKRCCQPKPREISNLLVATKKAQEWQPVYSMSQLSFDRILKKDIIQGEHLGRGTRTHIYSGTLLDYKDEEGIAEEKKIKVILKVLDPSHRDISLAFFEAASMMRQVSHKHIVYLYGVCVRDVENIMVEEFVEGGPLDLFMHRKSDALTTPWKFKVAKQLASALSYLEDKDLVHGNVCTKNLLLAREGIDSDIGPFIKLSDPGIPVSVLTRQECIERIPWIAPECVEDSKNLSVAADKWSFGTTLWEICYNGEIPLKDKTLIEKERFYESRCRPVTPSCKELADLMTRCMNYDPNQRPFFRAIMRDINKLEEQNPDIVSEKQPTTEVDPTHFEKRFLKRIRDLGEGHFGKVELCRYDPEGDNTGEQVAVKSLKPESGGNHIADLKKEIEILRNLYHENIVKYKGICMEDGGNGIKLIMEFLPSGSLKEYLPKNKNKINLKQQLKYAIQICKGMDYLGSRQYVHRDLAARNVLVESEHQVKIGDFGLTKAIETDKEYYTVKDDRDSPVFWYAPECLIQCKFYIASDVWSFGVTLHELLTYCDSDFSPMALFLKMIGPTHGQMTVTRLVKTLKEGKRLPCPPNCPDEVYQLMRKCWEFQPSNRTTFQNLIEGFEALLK

T1: biotinylated recombinant murine IFNγ (mouse) (UniProt P01580)
T1 sequence (chain, biotin (EZ linked N-hydroxysulfosuccinimide-biotin)): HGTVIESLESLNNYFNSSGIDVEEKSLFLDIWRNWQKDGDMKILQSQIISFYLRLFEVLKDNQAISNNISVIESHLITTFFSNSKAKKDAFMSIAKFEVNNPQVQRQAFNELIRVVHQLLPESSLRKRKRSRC

T2: IFNγ receptor subunit 1 (IFNγR1) (mouse (endogenous in RAW 264.7)) (UniProt P15261)
T2 sequence: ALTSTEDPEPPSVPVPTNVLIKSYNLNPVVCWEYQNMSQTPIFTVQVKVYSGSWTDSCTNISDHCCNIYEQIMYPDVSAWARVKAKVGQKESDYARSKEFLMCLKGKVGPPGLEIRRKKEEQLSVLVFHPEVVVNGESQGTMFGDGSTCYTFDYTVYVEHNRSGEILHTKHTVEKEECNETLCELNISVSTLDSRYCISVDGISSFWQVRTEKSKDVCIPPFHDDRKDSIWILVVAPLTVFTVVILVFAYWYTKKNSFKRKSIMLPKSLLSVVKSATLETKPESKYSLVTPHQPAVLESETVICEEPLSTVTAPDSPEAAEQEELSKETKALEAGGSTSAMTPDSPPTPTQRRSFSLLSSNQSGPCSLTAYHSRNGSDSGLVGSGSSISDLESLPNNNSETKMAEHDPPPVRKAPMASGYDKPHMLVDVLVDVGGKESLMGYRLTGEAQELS


Columns and labels:
[1] = target: JAK2 (mouse (endogenous in murine macrophages)) (UniProt Q62120); assay: co-IP; anti-JAK2 immunoprecipitate of MØ lysates, blot for SHP-1; cells with/without the cell permeable crosslinker DSS; steady state and 12 hr L. donovani infected MØs with 100 U/ml rIFNγ for 3 min
[2] = target: T1, biotinylated recombinant murine IFNγ (mouse); assay: pull-down; biotinylated IFNγ (0.5 ng/ml, 3 min, 37°C) on RAW 264.7 cells, captured on streptavidin-agarose from pooled raft and non-raft fractions; blot for IFNγR1 and IFNγR2; complexes boiled in 1% SDS, re-precipitated with anti-pTyr and blotted for IFNγR1, JAK2, JAK1 and STAT1; only the target purified
[3] = target: T2, IFNγ receptor subunit 1 (IFNγR1) (mouse (endogenous in RAW 264.7)); assay: radioligand binding; saturation binding of 125I-IFNγ (5-800 pM) to 2×10^7 cells per ml, 180 min at 4°C, RPMI with 2% fetal bovine serum; nonspecific binding with 200-fold excess of unlabeled ligand; one-site hyperbola; normal and L. donovani infected MØs; only the binder purified

| Molecule | binding [2] | also measured |
| --- | --- | --- |
| SHP-1 (from UniProt P29351 1-595) (enzyme) |  | binding [1]: binds |
| phosphorylated (activated) JAK1 (from UniProt P52332 1-1153) (enzyme) | binds |  |
| phosphorylated (activated) JAK2 (from UniProt Q62120 1-1132) (enzyme) | binds |  |
| 125I-labeled murine IFNγ (ligand, UniProt P01580 23-155, 125I (radioiodination with chloramine-T)) HGTVIESLESLNNYFNSSGIDVEEKSLFLDIWRNWQKDGDMKILQSQIISFYLRLFEVLKDNQAISNNISVIESHLITTFFSNSKAKKDAFMSIAKFEVNNPQVQRQAFNELIRVVHQLLPESSLRKRKRSRC |  | binding [3]: binds |
| IFNγ receptor subunit 1 (IFNγR1) (receptor, UniProt P15261 26-477) ALTSTEDPEPPSVPVPTNVLIKSYNLNPVVCWEYQNMSQTPIFTVQVKVYSGSWTDSCTNISDHCCNIYEQIMYPDVSAWARVKAKVGQKESDYARSKEFLMCLKGKVGPPGLEIRRKKEEQLSVLVFHPEVVVNGESQGTMFGDGSTCYTFDYTVYVEHNRSGEILHTKHTVEKEECNETLCELNISVSTLDSRYCISVDGISSFWQVRTEKSKDVCIPPFHDDRKDSIWILVVAPLTVFTVVILVFAYWYTKKNSFKRKSIMLPKSLLSVVKSATLETKPESKYSLVTPHQPAVLESETVICEEPLSTVTAPDSPEAAEQEELSKETKALEAGGSTSAMTPDSPPTPTQRRSFSLLSSNQSGPCSLTAYHSRNGSDSGLVGSGSSISDLESLPNNNSETKMAEHDPPPVRKAPMASGYDKPHMLVDVLVDVGGKESLMGYRLTGEAQELS | binds |  |
